Measured data: PubChem BioAssay AID652243 (Drosophila RNAi Screening Center, 2013)
Aim: 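Fly regulators of androgen-dependent reporter output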 (primary screen). System: Drosophila S2R+ cells. Reagent: long dsRNA against Drosophila genes. Time to read-out: 72 h (48 h, then 24 h hormone). Challenge: synthetic androgen R1881 at 10 nM for 24 h. Detection: 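Per-well raw luminescence of the androgen-driven firefly reporter and of the Renilla control, two replicates each, without normalisation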. Direction: firefly reporter light: higher = more light from androgen-responsive reporter; Renilla control light: higher = more constitutive control signal (cell number, transfection). Hit rule: 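Across duplicate plates, a knock-down whose log firefly/Renilla ratio shifted a set fold down or up from the GFP/LacZ control mean was a hit; the downward cut appears as both 1.5 and 3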. Meaning of the calls: active = hit: reporter lowered or raised; inactive = no hit.
The deposit covers about 24,000 reagents; below is an unselected part of those that have a named target and a result. Of all reagents, 246 (1%) are marked active. 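Plates not normalised; calls are printed but the firefly/Renilla ratio behind them is not deposited; fold cut for lowering reported inconsistently.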 Raw values are not corrected between plates. Not given: the amount of reagent.

predicted target | dsRNA | firefly reporter light, replicate 1 | firefly reporter light, replicate 2 | Renilla control light, replicate 1 | Renilla control light, replicate 2 | outcome
Fkbp59 | DRSC03323 | 1.62e5 | 1.21e5 | 1.15e6 | 8.14e5 | inactive
Fkbp59 | DRSC28356 | 4.09e5 | 4.51e5 | 9.34e5 | 1.25e6 | inactive
Dd | DRSC20539 | 1.48e5 | 1.25e5 | 8.87e5 | 5.69e5 | inactive
CG13062 | DRSC09945 | 2.94e5 | 1.70e5 | 1.88e6 | 1.56e6 | inactive
CG13062 | DRSC28840 | 2.84e5 | 2.24e5 | 6.33e5 | 6.41e5 | inactive
CG13062 | DRSC39057 | 2.56e5 | 2.36e5 | 6.85e5 | 1.03e6 | inactive
CG7378 | DRSC20041 | 1.32e5 | 1.25e5 | 4.78e5 | 2.46e5 | inactive
CG7378 | DRSC36826 | – | – | – | – | inactive
RhoGEF64C | DRSC08318 | 6.42e5 | 5.62e5 | 1.36e6 | 1.70e6 | inactive
RhoGEF64C | DRSC08319 | 1.23e5 | 87197 | 1.18e6 | 1.14e6 | inactive
RhoGEF64C | DRSC25939 | 3.47e5 | 3.64e5 | 8.12e5 | 9.94e5 | inactive
croc | DRSC11884 | 2.75e5 | 3.15e5 | 2.00e6 | 2.63e6 | inactive
croc | DRSC29346 | 4.28e5 | 5.60e5 | 1.23e6 | 1.23e6 | inactive
CG2839 | DRSC00544 | 1.15e5 | 1.09e5 | 9.01e5 | 9.06e5 | inactive
CG2839 | DRSC28090 | 4.48e5 | 4.27e5 | 1.37e6 | 1.34e6 | inactive
Usp7 | DRSC18909 | 1.80e6 | 8.80e5 | 2.98e6 | 1.07e6 | inactive
Usp7 | DRSC19604 | 4.85e5 | 5.76e5 | 3.21e6 | 3.02e6 | inactive
Usp7 | DRSC26109 | 2.96e5 | 3.66e5 | 6.33e5 | 4.20e5 | inactive
Gpo1 | DRSC07128 | 1.56e6 | 1.43e6 | 2.84e6 | 2.61e6 | inactive
CG15734 | DRSC19701 | 4.90e5 | 4.44e5 | 3.83e6 | 3.92e6 | inactive
Reck | DRSC10504 | 8.15e5 | 4.00e5 | 1.72e6 | 1.54e6 | inactive
Reck | DRSC10505 | 2.18e5 | 1.98e5 | 2.21e6 | 1.90e6 | inactive
CG10752 | DRSC09799 | 9.52e5 | 8.05e5 | 2.02e6 | 2.06e6 | inactive
CG15923 | DRSC15129 | 66562 | 1.36e5 | 5.44e5 | 7.05e5 | inactive
lectin-21Ca | DRSC00541 | 95599 | 64597 | 7.14e5 | 6.87e5 | inactive
TpnC73F | DRSC11307 | 2.96e5 | 2.44e5 | 2.06e6 | 1.85e6 | inactive
Kap-alpha1 | DRSC11356 | 2.38e5 | 2.23e5 | 1.98e6 | 2.24e6 | inactive
CG18190 | DRSC06714 | 1.34e5 | 1.92e5 | 2.23e6 | 1.69e6 | inactive
CG18190 | DRSC27920 | 5.32e5 | 4.81e5 | 1.75e6 | 1.68e6 | inactive
CG6656 | DRSC16085 | 92957 | 96845 | 9.59e5 | 8.84e5 | inactive
CG6656 | DRSC36947 | – | – | – | – | inactive
CG6656 | DRSC36948 | – | – | – | – | inactive
Ugt49B1 | DRSC04461 | 3.00e5 | 2.73e5 | 1.80e6 | 1.70e6 | inactive
Ugt49B1 | DRSC26568 | 3.32e5 | 2.58e5 | 8.45e5 | 8.14e5 | inactive
CG33107 | DRSC21898 | 6.92e5 | 5.12e5 | 1.67e6 | 1.47e6 | inactive
CG14915 | DRSC02399 | 2.26e5 | 2.66e5 | 1.52e6 | 1.71e6 | inactive
CG14915 | DRSC26295 | 3.35e5 | 2.96e5 | 6.77e5 | 7.07e5 | inactive
CG14537 | DRSC02395 | 1.90e5 | 2.17e5 | 1.59e6 | 1.62e6 | inactive
CG4630 | DRSC06874 | 9.71e5 | 7.44e5 | 1.28e6 | 1.14e6 | inactive
CG4630 | DRSC26971 | 3.70e5 | 2.87e5 | 1.01e6 | 7.63e5 | inactive
CG5039 | DRSC15703 | 2.07e5 | 2.19e5 | 2.95e6 | 2.57e6 | inactive
CG5039 | DRSC27367 | 3.49e5 | 2.70e5 | 7.07e5 | 6.96e5 | inactive
MED17 | DRSC16889 | 61555 | 40388 | 6.32e5 | 5.54e5 | inactive
SF2 | DRSC16845 | 1.89e5 | 1.78e5 | 4.37e6 | 3.61e6 | inactive
CG1986 | DRSC18197 | 2.33e5 | 2.84e5 | 1.90e6 | 1.70e6 | inactive
CG1986 | DRSC27916 | 5.95e5 | 5.23e5 | 2.06e6 | 1.60e6 | inactive
psd | DRSC03131 | 1.20e5 | 1.42e5 | 1.64e6 | 1.25e6 | inactive
psd | DRSC25415 | 1.12e6 | 1.12e6 | 1.24e6 | 1.44e6 | inactive
CG17404 | DRSC15234 | 1.39e6 | 1.36e6 | 2.81e6 | 2.72e6 | inactive
ZnT49B | DRSC07225 | 2.95e5 | 2.08e5 | 2.10e6 | 1.60e6 | inactive
CG13085 | DRSC02189 | 1.30e5 | 1.63e5 | 1.43e6 | 1.70e6 | inactive
CG13085 | DRSC28099 | 4.65e5 | 5.88e5 | 1.56e6 | 1.51e6 | inactive
Ctu2 | DRSC02024 | 6.29e5 | 6.25e5 | 1.68e6 | 2.06e6 | inactive
Ctu2 | DRSC29317 | 6.23e5 | 7.63e5 | 1.16e6 | 1.16e6 | inactive
lncRNA:CR33218 | DRSC22944 | 4.52e5 | 8.02e5 | 1.14e6 | 1.56e6 | inactive
trbl | DRSC11901 | 2.32e5 | 2.03e5 | 2.77e6 | 2.01e6 | inactive
trbl | DRSC36800 | – | – | – | – | inactive
trbl | DRSC36801 | – | – | – | – | inactive
Rat1 | DRSC02044 | 7.77e5 | 5.29e5 | 2.28e6 | 1.50e6 | inactive
CG13272 | DRSC02249 | 1.12e5 | 1.54e5 | 1.85e6 | 2.30e6 | inactive
CG13272 | DRSC22910 | 4.51e5 | 1.21e6 | 1.26e6 | 1.63e6 | inactive
CG13272 | DRSC28613 | 4.19e5 | 4.79e5 | 1.09e6 | 1.59e6 | inactive
MetRS-m | DRSC16443 | 1.15e5 | 94983 | 6.32e5 | 8.07e5 | inactive
MetRS-m | DRSC16515 | 82449 | 77806 | 1.27e6 | 1.59e6 | inactive
CG5217 | DRSC15740 | 2.83e5 | 3.27e5 | 2.77e6 | 2.62e6 | inactive
CG4461 | DRSC10423 | 2.99e5 | 1.60e5 | 2.52e6 | 1.65e6 | inactive
CG4461 | DRSC29266 | 3.96e5 | 5.63e5 | 1.55e6 | 1.79e6 | inactive
CG4461 | DRSC39049 | 8.24e5 | 7.55e5 | 2.50e6 | 1.95e6 | inactive
CG18789 | DRSC02696 | 2.20e5 | 2.92e5 | 1.85e6 | 2.37e6 | inactive
CG5376 | DRSC15782 | 2.05e5 | 2.44e5 | 3.09e6 | 3.22e6 | inactive
CG5376 | DRSC29433 | 6.88e5 | 7.24e5 | 9.10e5 | 9.10e5 | inactive
CG32846 | DRSC08012 | 1.50e5 | 3.11e5 | 3.31e5 | 3.46e5 | inactive
CG32846 | DRSC27074 | 7.20e5 | 5.24e5 | 5.90e5 | 3.29e5 | inactive
CG5381 | DRSC02852 | 2.20e5 | 2.53e5 | 1.13e6 | 1.53e6 | inactive
